We go through 27 molecules from paper PMC6079634.

Sequences of proteins named here, by UniProt entry; tags and fusion partners are left off. Residues count along the entry.
UniProt Q86YZ3: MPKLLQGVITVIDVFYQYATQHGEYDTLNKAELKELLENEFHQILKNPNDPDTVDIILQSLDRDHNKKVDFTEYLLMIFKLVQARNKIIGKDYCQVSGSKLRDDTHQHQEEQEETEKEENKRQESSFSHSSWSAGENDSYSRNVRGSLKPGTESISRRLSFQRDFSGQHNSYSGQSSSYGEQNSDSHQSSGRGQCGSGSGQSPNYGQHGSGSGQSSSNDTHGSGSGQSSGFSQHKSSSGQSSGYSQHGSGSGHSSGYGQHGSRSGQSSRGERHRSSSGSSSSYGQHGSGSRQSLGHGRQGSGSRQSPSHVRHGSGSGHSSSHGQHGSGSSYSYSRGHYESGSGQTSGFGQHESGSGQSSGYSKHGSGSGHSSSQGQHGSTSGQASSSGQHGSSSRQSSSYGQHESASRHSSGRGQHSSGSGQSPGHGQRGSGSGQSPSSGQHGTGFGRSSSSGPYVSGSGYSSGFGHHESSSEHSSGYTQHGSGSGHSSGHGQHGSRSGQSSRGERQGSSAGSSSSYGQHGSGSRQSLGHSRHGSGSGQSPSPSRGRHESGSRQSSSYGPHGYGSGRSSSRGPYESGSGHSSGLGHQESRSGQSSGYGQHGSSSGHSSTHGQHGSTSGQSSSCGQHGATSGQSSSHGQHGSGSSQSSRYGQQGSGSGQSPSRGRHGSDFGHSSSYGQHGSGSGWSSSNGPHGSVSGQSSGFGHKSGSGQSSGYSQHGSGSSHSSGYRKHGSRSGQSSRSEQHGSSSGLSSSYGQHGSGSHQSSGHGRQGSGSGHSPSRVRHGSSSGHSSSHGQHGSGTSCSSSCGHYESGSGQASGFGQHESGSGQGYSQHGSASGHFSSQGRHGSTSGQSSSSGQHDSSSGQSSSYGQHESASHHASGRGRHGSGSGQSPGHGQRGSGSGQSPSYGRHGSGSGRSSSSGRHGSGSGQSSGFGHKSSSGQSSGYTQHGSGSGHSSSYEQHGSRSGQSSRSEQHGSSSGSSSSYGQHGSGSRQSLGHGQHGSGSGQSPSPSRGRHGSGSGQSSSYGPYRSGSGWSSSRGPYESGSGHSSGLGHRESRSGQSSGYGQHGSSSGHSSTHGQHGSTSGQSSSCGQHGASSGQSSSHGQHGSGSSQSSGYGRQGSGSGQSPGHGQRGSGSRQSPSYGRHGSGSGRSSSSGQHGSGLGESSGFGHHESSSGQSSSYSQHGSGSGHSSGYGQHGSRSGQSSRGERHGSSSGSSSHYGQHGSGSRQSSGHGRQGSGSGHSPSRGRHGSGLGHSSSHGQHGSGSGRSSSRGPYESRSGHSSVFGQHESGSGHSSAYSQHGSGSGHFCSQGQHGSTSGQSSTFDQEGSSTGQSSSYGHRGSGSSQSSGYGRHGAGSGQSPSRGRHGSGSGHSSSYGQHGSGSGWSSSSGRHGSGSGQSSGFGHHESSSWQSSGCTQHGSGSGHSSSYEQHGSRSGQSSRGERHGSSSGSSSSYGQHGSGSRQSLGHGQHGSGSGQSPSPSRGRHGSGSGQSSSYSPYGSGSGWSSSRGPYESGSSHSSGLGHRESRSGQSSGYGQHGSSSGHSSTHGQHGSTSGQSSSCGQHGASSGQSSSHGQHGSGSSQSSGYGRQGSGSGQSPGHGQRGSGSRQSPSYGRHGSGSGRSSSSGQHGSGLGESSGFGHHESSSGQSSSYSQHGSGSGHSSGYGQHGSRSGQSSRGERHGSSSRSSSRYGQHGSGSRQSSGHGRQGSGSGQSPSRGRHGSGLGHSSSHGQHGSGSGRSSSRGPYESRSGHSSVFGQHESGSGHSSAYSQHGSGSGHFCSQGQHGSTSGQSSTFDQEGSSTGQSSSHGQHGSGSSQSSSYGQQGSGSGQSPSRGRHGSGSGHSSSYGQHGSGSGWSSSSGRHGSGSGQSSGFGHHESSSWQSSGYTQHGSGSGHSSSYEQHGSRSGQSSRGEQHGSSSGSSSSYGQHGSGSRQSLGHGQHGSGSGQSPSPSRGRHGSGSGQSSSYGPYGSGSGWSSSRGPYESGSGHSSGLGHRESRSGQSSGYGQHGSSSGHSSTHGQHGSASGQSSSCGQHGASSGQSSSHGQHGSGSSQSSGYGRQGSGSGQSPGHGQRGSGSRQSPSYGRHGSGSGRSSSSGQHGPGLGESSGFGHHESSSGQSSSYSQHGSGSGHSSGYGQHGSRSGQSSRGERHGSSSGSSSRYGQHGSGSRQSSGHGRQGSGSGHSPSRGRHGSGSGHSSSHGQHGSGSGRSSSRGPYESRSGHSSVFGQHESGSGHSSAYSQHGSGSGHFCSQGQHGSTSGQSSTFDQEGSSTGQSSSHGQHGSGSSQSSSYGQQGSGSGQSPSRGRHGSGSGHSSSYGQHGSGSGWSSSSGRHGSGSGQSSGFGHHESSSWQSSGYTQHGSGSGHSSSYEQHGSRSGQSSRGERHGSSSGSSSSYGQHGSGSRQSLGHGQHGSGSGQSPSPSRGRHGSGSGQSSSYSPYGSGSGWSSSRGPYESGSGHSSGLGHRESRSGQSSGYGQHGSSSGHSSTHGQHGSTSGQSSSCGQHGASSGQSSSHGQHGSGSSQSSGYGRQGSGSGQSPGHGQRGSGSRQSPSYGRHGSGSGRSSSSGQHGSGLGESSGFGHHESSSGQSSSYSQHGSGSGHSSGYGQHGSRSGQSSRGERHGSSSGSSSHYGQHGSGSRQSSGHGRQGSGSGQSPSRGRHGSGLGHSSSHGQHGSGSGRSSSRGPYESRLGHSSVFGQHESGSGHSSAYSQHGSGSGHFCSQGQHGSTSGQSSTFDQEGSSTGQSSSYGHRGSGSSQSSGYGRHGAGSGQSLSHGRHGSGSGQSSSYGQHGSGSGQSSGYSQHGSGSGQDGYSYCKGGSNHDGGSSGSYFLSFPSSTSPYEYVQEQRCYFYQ
UniProt P46934: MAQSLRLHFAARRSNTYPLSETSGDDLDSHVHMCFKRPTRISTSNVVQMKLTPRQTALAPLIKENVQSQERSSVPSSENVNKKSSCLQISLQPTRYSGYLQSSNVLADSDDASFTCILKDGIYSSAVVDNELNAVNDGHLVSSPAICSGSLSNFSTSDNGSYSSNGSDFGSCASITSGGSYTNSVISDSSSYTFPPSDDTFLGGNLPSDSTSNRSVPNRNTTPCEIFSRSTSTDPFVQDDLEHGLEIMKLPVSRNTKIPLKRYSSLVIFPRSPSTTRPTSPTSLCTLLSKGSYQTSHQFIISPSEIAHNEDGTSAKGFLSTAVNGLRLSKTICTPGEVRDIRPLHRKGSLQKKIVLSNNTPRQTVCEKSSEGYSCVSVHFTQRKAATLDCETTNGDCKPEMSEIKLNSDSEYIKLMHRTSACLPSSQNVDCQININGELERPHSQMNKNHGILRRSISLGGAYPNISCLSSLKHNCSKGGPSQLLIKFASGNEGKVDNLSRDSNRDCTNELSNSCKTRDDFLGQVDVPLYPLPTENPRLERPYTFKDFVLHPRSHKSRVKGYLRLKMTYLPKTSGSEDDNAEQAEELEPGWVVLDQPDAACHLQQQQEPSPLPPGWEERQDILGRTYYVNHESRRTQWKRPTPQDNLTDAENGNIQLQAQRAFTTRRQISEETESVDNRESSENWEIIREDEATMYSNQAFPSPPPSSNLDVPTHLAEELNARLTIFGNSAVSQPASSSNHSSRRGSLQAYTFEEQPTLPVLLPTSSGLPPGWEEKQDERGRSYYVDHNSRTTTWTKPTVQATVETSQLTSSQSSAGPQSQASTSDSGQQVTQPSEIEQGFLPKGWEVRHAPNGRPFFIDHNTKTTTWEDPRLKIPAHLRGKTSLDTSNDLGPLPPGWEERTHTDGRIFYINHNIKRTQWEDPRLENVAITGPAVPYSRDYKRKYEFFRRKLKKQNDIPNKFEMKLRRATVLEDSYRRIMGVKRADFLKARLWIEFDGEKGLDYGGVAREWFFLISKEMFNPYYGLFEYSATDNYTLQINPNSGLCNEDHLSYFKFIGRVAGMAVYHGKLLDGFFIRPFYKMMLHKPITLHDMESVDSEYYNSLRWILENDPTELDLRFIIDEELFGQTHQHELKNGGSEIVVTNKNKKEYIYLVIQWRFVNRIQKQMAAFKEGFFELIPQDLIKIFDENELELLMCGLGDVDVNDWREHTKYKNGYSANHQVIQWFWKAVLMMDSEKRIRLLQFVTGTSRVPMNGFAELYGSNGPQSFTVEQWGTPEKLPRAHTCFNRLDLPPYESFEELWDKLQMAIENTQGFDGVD
UniProt O00571: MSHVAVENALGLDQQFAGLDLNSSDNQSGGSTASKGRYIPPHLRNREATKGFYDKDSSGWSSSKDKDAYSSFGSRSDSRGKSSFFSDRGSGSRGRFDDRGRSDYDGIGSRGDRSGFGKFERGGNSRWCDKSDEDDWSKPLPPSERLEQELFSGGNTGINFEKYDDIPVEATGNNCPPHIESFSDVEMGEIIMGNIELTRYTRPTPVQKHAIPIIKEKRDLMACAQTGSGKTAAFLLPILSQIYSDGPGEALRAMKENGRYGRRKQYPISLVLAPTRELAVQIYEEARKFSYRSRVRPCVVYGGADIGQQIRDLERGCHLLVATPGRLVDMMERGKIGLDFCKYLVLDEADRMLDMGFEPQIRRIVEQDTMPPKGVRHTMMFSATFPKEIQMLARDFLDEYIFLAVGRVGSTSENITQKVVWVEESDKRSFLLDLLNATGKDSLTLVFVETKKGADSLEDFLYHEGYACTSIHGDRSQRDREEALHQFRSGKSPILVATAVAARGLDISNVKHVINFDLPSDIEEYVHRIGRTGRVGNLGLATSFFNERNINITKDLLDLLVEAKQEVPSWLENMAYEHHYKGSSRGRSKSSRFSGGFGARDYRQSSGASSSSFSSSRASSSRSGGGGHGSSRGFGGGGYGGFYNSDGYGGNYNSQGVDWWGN
UniProt P02545, residues 1-646: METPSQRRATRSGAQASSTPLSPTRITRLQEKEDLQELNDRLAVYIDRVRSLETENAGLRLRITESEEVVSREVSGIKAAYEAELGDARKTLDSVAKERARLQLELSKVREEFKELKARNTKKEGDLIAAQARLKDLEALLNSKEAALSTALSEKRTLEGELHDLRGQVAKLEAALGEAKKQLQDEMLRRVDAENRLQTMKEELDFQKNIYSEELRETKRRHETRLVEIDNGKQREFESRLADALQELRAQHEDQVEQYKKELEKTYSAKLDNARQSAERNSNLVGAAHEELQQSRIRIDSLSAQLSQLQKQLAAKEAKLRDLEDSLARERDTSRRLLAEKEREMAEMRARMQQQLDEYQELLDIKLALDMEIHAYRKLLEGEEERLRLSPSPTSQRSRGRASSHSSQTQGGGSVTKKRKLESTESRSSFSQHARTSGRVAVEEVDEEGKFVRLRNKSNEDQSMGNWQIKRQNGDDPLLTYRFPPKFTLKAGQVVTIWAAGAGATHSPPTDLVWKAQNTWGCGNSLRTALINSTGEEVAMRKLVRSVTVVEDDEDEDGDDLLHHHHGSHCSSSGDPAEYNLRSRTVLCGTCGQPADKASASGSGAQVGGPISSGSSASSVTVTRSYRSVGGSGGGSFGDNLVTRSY
UniProt O00567: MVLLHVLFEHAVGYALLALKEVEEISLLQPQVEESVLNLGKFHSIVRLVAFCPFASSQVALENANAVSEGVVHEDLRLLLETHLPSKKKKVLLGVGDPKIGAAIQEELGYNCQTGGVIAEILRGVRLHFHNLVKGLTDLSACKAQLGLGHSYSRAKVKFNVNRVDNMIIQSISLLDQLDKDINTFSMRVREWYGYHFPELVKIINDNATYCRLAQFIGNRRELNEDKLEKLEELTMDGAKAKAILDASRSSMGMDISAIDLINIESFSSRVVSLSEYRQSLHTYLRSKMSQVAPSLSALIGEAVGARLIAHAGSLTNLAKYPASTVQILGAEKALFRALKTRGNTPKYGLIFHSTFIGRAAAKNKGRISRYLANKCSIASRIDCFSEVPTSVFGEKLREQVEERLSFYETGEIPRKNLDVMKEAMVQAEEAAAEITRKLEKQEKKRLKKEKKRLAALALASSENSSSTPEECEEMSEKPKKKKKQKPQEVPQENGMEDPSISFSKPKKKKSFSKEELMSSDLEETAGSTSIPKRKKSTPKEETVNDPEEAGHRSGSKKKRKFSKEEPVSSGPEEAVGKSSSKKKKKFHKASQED
UniProt P38159: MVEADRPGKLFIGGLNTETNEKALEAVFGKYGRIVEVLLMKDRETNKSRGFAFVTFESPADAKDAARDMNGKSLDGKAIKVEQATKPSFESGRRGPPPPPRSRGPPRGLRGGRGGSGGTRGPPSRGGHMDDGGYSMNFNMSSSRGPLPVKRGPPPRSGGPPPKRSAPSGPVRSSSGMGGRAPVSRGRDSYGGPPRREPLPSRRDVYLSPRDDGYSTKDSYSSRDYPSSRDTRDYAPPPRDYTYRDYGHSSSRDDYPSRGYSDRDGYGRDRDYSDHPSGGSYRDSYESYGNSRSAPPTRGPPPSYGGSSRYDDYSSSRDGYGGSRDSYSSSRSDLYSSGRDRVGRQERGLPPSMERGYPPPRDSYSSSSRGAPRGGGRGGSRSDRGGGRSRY

For assay [1], the target named is T1, GB1‐OCLN_N recombinant protein (occludin N‐terminal domain, 1‐65) (human) (UniProt Q16625).
T1 sequence: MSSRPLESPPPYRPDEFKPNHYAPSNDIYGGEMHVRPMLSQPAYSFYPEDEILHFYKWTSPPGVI
Briefly: affinity purification with mass spectrometry; GB1‐OCLN_N, GB1‐OCLN_C or GB1‐6His control adsorbed onto IgG beads; 1321N1 cell lysate (cells treated with 5 mM CaCl2 and 4 μM A23187 for 15 min before lysis; 1 mg/ml) incubated O/N at 4°C; eluted by boiling in Laemmli buffer, SDS‐PAGE, in-gel digestion, ESI‐MS (Mascot, Swiss‐Prot); only the target purified.

The target of assay [2] is T2, GB1‐OCLN_C recombinant protein (occludin C‐terminal domain, 271‐522) (human) (UniProt Q16625).
T2 sequence: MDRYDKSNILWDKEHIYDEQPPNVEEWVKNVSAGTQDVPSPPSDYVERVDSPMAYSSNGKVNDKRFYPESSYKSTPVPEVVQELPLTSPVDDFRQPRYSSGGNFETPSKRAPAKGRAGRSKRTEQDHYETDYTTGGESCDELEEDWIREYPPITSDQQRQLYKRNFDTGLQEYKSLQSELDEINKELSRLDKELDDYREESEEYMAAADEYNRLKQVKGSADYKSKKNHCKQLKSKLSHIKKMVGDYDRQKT
Described as above.

Results are given in words; binding and its absence hold for the method and conditions named. Binding seen in cells or lysates may run through a third protein. These calls come from enrichment with a bait or labelling near it, and not all partners need be listed.

Turning to “ELAV‐like protein 1 (from UniProt Q15717 1-326)”, the binding result in assay [1] is given as “binds”.
For the molecule “Interleukin enhancer‐binding factor 2 (from UniProt Q12905 1-390)”, in assay [1], the binding result was “binds”.
Hornerin (from UniProt Q86YZ3 1-2850): the binding entry in assay [2] is listed as “binds”.
Take “Core histone macro‐H2A.1 (from UniProt O75367 1-369)”: the binding result in assay [1] is on record as “binds”.
With “Tight junction protein ZO‐1 (from UniProt Q07157 1-1748)”, in assay [2], the binding result is on record as “binds”.
With “E3 ubiquitin‐protein ligase NEDD4 (from UniProt P46934 1-1319)”, the binding entry in assay [1] is reported as “binds”.
On to “ATP‐dependent RNA helicase DDX3X (from UniProt O00571 1-662)”, for which the binding result in assay [2] was “binds”.
Regarding “Nucleolar RNA helicase 2 (from UniProt Q9NR30 1-783)”, the binding result in assay [1] is listed as “binds”.
On to “Putative pre‐mRNA‐splicing factor ATP‐dependent RNA helicase DHX15 (from UniProt O43143 1-795)”, for which the binding result in assay [1] is recorded as “binds”.
Regarding “U5 small nuclear ribonucleoprotein 200 kDa helicase (from UniProt O75643 1-2136)”, the binding entry in assay [1] is listed as “binds”.
On the same count and under the same terms, the same measure for “SWI/SNF‐related matrix‐associated actin‐dependent regulator of chromatin subfamily A member 5 (from UniProt O60264 1-1052)”: “binds”.
As for “Glyceraldehyde‐3‐phosphate dehydrogenase (from UniProt P04406 1-335)”, the binding entry in assay [2] was “binds”.
For the molecule Myosin‐10 (from UniProt P35580 1-1976), the binding entry in assay [1] is reported as “binds”.
Still for that read-out and setting: with “PC4 and SFRS1‐interacting protein (from UniProt O75475 1-530)” the entry was “binds”.
Consider “Poly(rC)‐binding protein 1 (from UniProt Q15365 1-356)”, for which the binding result in assay [2] is given as “binds”.
Regarding “Nuclear cap‐binding protein subunit 1 (from UniProt Q09161 1-790)”, the binding result in assay [1] is “binds”.
Turning to “DNA topoisomerase 2‐beta (from UniProt Q02880 1-1626)”, in assay [1], the binding entry is given as “binds”.
With “Prelamin‐A/C (from UniProt P02545 1-646)”, in assay [2], the binding entry is reported as “binds”.
With “Nucleophosmin (from UniProt P06748 1-294)”, in assay [1], the binding entry is given as “binds”.
On the same count and under the same terms, with “Nucleolar protein 56 (from UniProt O00567 1-594)” the entry was “binds”.
On the same count and under the same terms, with “Peptidyl‐prolyl cis‐trans isomerase B (from UniProt P23284 34-216)” the entry was “binds”.
“RNA‐binding motif protein, X chromosome (from UniProt P38159 1-391)”: the binding result in assay [1] is “binds”.

B1: Heterogeneous nuclear ribonucleoprotein L (protein, UniProt P14866 1-589)
chain: MSRRLLPRAEKRRRRLEQRQQPDEQRRRSGAMVKMAAAGGGGGGGRYYGGGSEGGRAPKRLKTDNAGDQHGGGGGGGGGAGAAGGGGGGENYDDPHKTPASPVVHIRGLIDGVVEADLVEALQEFGPISYVVVMPKKRQALVEFEDVLGACNAVNYAADNQIYIAGHPAFVNYSTSQKISRPGDSDDSRSVNSVLLFTILNPIYSITTDVLYTICNPCGPVQRIVIFRKNGVQAMVEFDSVQSAQRAKASLNGADIYSGCCTLKIEYAKPTRLNVFKNDQDTWDYTNPNLSGQGDPGSNPNKRQRQPPLLGDHPAEYGGPHGGYHSHYHDEGYGPPPPHYEGRRMGPPVGGHRRGPSRYGPQYGHPPPPPPPPEYGPHADSPVLMVYGLDQSKMNCDRVFNVFCLYGNVEKVKFMKSKPGAAMVEMADGYAVDRAITHLNNNFMFGQKLNVCVSKQPAIMPGQSYGLEDGSCSYKDFSESRNNRFSTPEQAAKNRIQHPSNVLHFFNAPLEVTEENFFEICDELGVKRPSSVKVFSGKSERSSSGLLEWESKSDALETLGFLNHYQMKNPNGPYPYTLKLCFSTAQHAS
As to B1, in assay [1], the binding result was “binds”.

B2: Myosin regulatory light chain 12A (protein, UniProt P19105 1-171)
chain: MSSKRTKTKTKKRPQRATSNVFAMFDQSQIQEFKEAFNMIDQNRDGFIDKEDLHDMLASLGKNPTDEYLDAMMNEAPGPINFTMFLTMFGEKLNGTDPEDVIRNAFACFDEEATGTIQEDYLRELLTTMGDRFTDEEVDELYREAPIDKKGNFNYIEFTRILKHGAKDKDD
B2: the binding result in assay [1] was “binds”.

B3: Non‐POU domain‐containing octamer‐binding protein (protein, UniProt Q15233 1-471)
chain: MQSNKTFNLEKQNHTPRKHHQHHHQQQHHQQQQQQPPPPPIPANGQQASSQNEGLTIDLKNFRKPGEKTFTQRSRLFVGNLPPDITEEEMRKLFEKYGKAGEVFIHKDKGFGFIRLETRTLAEIAKVELDNMPLRGKQLRVRFACHSASLTVRNLPQYVSNELLEEAFSVFGQVERAVVIVDDRGRPSGKGIVEFSGKPAARKALDRCSEGSFLLTTFPRPVTVEPMDQLDDEEGLPEKLVIKNQQFHKEREQPPRFAQPGSFEYEYAMRWKALIEMEKQQQDQVDRNIKEAREKLEMEMEAARHEHQVMLMRQDLMRRQEELRRMEELHNQEVQKRKQLELRQEEERRRREEEMRRQQEEMMRRQQEGFKGTFPDAREQEIRMGQMAMGGAMGINNRGAMPPAPVPAGTPAPPGPATMMPDGTLGLTPPTTERFGQAATMEGIGAIGGTPPAFNRAAPGAEFAPNKRRRY
Turning to B3, the binding entry in assay [1] is on record as “binds”.

B4: Dermcidin (protein, UniProt P81605 20-110)
chain: YDPEAASAPGSGNPCHEASAAQKENAGEDPGLARQAPKPRKQRSSLLEKGLDGAKKAVGGLGKLGKDAVEDLESVGKGAVHDVKDVLDSVL
Regarding B4, the binding entry in assay [1] is on record as “binds”.

B5: Nucleolar protein 58 (protein, UniProt Q9Y2X3 1-529)
chain: MLVLFETSVGYAIFKVLNEKKLQEVDSLWKEFETPEKANKIVKLKHFEKFQDTAEALAAFTALMEGKINKQLKKVLKKIVKEAHEPLAVADAKLGGVIKEKLNLSCIHSPVVNELMRGIRSQMDGLIPGVEPREMAAMCLGLAHSLSRYRLKFSADKVDTMIVQAISLLDDLDKELNNYIMRCREWYGWHFPELGKIISDNLTYCKCLQKVGDRKNYASAKLSELLPEEVEAEVKAAAEISMGTEVSEEDICNILHLCTQVIEISEYRTQLYEYLQNRMMAIAPNVTVMVGELVGARLIAHAGSLLNLAKHAASTVQILGAEKALFRALKSRRDTPKYGLIYHASLVGQTSPKHKGKISRMLAAKTVLAIRYDAFGEDSSSAMGVENRAKLEARLRTLEDRGIRKISGTGKALAKTEKYEHKSEVKTYDPSGDSTLPTCSKKRKIEQVDKEDEITEKKAKKAKIKVKVEEEEEEKVAEEEETSVKKKKKRGKKKHIKEEPLSEEEPCTSTAIASPEKKKKKKKKRENED
As for B5, the binding entry in assay [1] is “binds”.
